This note sets out measurements from paper PMC10904736, “A c-di-GMP signaling module controls responses to iron in Pseudomonas aeruginosa” (Nature Communications, 2024).

These are yes or no findings as the source states them, for the method shown. Where a sequence is shown, tags or fusion partners need not be part of it.

The assay addresses IsmP fragment with a defect in the PAS domain, bacterial two-hybrid fusion (Pseudomonas aeruginosa PAO1). The assay is described as follows: two-hybrid; bacterial two-hybrid (BTH kit, EUROMEDEX): pKT25 and pUT18C plasmids in E. coli BTH101, LB agar with 1 mM IPTG and X-Gal, 30 °C, 24 h; blue colonies, β-galactosidase activity in Miller units.

B1: ImcA (iron modulator of c-di-GMP A, PA1851), full length, bacterial two-hybrid fusion (protein, UniProt Q9I2P4 1-401)
chain: MLARDSLVQAGLPDNPYARQLRNGFRWLRFEKELENEFREFLSWNSLMQRRAAIGVAFLIWALFIVADWMMVDIRLHPSLFEQLLGVRLGMIGLLLVVWPAAFLPSLRKVGDAIAPYCLLLINLAVLACDVLFEWHGVPRFTQLGATLGILAVFFPLGLAFWACVRLALLCLALNLAVFLLFGGEENLRTNLLNTLYNGLVVLICSFALYLQDYAQREQFLGRRLLGMMAEQDSLTGLVNRRYYELLAQRALEQGAREEKGVALILVDVDDFKAYNDHYGHPAGDAALRQLGVVLRQGARRPLDIAARLGGEEFAVLLYDSEEGNTLAIAERLRQAVEALGIEHLGSSAGPCLTISLGVAYSTSGMGLDALYREADRALYEAKDAGRNAVRVAFRQHDRLE
B1: the binding result is listed as “no binding”.
